Measurements reported in PubChem BioAssay AID1671195 (Yale University, 2021)
The whole screen tested about 22,000 reagents; this is a random part of them. In the full data, about 1,510 (6.9%) are marked active. 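Active includes knockdowns raising or lowering LDL uptake; positive z-scores mean more uptake, negative mean less.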 The numbers tell different reagents against one gene apart.

- Screen: 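Knockdowns that increase or decrease uptake of fluorescent LDL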 (primary screen)
- System: human Huh7 hepatoma cells
- Reagent: siRNA pool against human genes, 18 nM
- Duration: about 2 to 2.5 days of knockdown, then 8 h LDL uptake
- Challenge: DiI-labelled LDL at 30 µg/ml for 8 h, in lipoprotein-deficient serum medium
- Measured: 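Per-cell DiI-LDL intensity by automated imaging; well means scaled to the plate median and given as a robust z-score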
- Direction: robust z-score: higher = more LDL uptake after knockdown
- Rule for the call: 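a gene counts as active if at least two replicate z-scores exceed ±2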

no.	target gene	pool no.	robust z-score, replicate 1	robust z-score, replicate 2	robust z-score, replicate 3	Outcome
1	LOC286441 (retired record)	1	1.68	1.88	1.34	inactive
2	DHRS11	1	-0.606	-0.538	-0.276	inactive
3	ZNF391	1	0.029	-0.0479	-0.331	inactive
4	ZNF391	2	-1.19	-1.07	-1.44	inactive
5	LRTOMT	1	-0.475	-0.259	-0.237	inactive
6	PRR13	1	-0.682	0.845	0.885	inactive
7	COL6A1	1	1.52	1.71	1.9	inactive
8	TRIB2	1	0.651	0.54	1.38	inactive
9	NKX6-2	1	0.851	-0.0653	1.72	inactive
10	CD300C	1	0.731	0.899	-0.0945	inactive
11	LINC01951	1	0.114	-0.215	-0.511	inactive
12	ZFYVE9	1	0.25	0.658	0.942	inactive
13	MYO16	1	-1.67	-0.699	-1.46	inactive
14	ANO4	1	0.702	0.993	2.1	inactive
15	IFT70A	1	-0.186	0.982	0.807	inactive
16	LOC389182 (retired record)	1	1.12	0.428	0.163	inactive
17	ZNF70	1	-1.8	-1.11	-1.34	inactive
18	TRPV3	1	-1.26	-1.48	-1.52	inactive
19	KCNK17	1	2.22	1.67	1.78	inactive
20	AMELY	1	0.323	-1.09	-0.703	inactive
21	LINC01624	1	-2.7	-3.15	-3.24	active
22	SLC9B1P2	1	0.842	0.998	0.8	inactive
23	LOC442053 (retired record)	1	-0.0913	0.0377	0.0435	inactive
24	GPAT4	1	-2.08	-1.95	-0.853	active
25	CT55	1	0.907	2.07	1.21	inactive
26	WASHC3	1	1.05	1.88	0.223	inactive
27	TAS2R10	1	0.394	-0.95	0.125	inactive
28	CEP72	1	0.375	1.22	0.436	inactive
29	TMEM127	1	-0.648	-0.896	-1.8	inactive
30	PTGS1	1	2.07	0.143	-0.0249	inactive
31	ADAMTS1	1	-0.186	-0.628	-0.0473	inactive
32	LINC02433	1	0.0487	-0.017	-0.255	inactive
33	TYW1B	1	-0.0618	0.00126	0.017	inactive
34	KIF9	1	-0.503	0.174	0.275	inactive
35	ID4	1	1.29	1.13	0.76	inactive
36	KCNK18	1	-0.779	-0.839	-0.439	inactive
37	TCEAL4	1	-0.806	-0.628	-0.924	inactive
38	ATP6V0D1	1	-0.25	0.351	0.267	inactive
39	U2AF2	1	1.62	1.24	1.62	inactive
40	NXF1	1	-1.7	-2.22	-2.13	active
41	PSMD10	1	-1.4	-1.47	-1.77	inactive
42	ACACB	1	1.22	0.0306	-0.463	inactive
43	ASCC3	1	-0.223	2.49	1.39	inactive
44	CYP4F24P	1	2.77	2.7	2.9	active
45	GNAQ	1	0.0869	-0.815	-0.281	inactive
46	GRAP2	1	-0.731	0.993	-0.624	inactive
47	SLC38A5	1	1.03	0.555	0.469	inactive
48	CTSZ	1	0.627	0.141	0.0429	inactive
49	ISCA1	1	0.856	1.48	1.49	inactive
50	MS4A5	1	1.4	0.492	0.708	inactive
51	SLAMF7	1	-0.965	-1.07	-0.872	inactive
52	MTRFR	1	0.2	0.229	0.295	inactive
53	MASP1	1	0.452	0.416	0.813	inactive
54	CMBL	1	-0.329	-0.371	0.757	inactive
55	HOXD10	1	0.242	1.31	0.735	inactive
56	GSTM3	1	1.86	2.33	1.95	active
57	LOC400813 (retired record)	1	1.45	0.645	0.927	inactive
58	ZNF563	1	-0.402	-0.542	-0.304	inactive
59	ZNF284	1	0.184	0.219	0.466	inactive
60	CAMLG	1	-1.2	-0.184	-0.951	inactive
61	CDR2	1	-0.151	-0.618	1.84	inactive
62	POLD2	1	0.283	0.158	0.42	inactive
63	BATF3	1	-1.45	0.00467	-0.0583	inactive
64	RSL24D1	1	0.0437	0.603	-0.544	inactive
65	ICAM3	1	-0.0822	-0.347	-0.0888	inactive
66	ANKRD17	1	-0.368	-0.257	-0.514	inactive
67	LOC402028 (retired record)	1	-0.25	0.489	0.227	inactive
68	UST	1	1.84	0.852	1.76	inactive

A few values from the list:
Entry of CEP72 under “robust z-score, replicate 1”: 0.375
Under “robust z-score, replicate 2”, LOC400813 (retired record) has 0.645
ZNF70, Outcome: inactive
LOC442053 (retired record), robust z-score, replicate 3 = 0.0435
For “robust z-score, replicate 3”, ZFYVE9 shows 0.942
Result of GRAP2 in “Outcome”: inactive
